The results in this text go back to PMC5675621.

Results are given in words; binding and its absence hold for the method and conditions named. Binding seen in cells or lysates may run through a third protein. Binding calls can cover weak binding; strength is not graded here.

In experiment [1] the target is T1, NAB2 (NGFI-A Binding Protein 2) (UniProt Q15742).
T1 sequence: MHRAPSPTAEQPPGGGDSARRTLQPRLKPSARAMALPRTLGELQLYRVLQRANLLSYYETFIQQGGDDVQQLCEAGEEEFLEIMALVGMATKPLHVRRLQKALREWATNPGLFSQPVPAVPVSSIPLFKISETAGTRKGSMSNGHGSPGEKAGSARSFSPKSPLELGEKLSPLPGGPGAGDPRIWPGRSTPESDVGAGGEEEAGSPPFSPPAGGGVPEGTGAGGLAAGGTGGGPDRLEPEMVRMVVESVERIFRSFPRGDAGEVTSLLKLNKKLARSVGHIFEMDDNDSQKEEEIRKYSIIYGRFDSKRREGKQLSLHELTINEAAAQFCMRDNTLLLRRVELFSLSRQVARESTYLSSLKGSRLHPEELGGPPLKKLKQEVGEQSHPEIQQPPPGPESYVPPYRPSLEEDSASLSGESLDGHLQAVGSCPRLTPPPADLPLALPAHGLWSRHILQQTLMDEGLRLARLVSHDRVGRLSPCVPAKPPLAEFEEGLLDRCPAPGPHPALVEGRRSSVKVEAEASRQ
The experiment in a line: co-IP; nuclear extracts of 293T/17 cells 48 h after transfection with WT1 or WT1 plus NAB2 (Nuclear Complex Co-IP kit); IP with anti-WT1 (C-19) or anti-NAB2 (1C4) overnight at 4°C in 1 × High IP buffer, Protein G agarose column, immunoblot.

Experiment [2] deals with Wilms' tumor gene 1 protein, WT1+17AA/-KTS isoform (UniProt P19544). Described as above.

As for “Wilms' tumor gene 1 protein, WT1+17AA/-KTS isoform (from UniProt P19544-4)”, the binding entry in experiment [1] is recorded as “binds”.

B1: NAB2 (NGFI-A Binding Protein 2) (protein, UniProt Q15742-1 1-525)
chain: MHRAPSPTAEQPPGGGDSARRTLQPRLKPSARAMALPRTLGELQLYRVLQRANLLSYYETFIQQGGDDVQQLCEAGEEEFLEIMALVGMATKPLHVRRLQKALREWATNPGLFSQPVPAVPVSSIPLFKISETAGTRKGSMSNGHGSPGEKAGSARSFSPKSPLELGEKLSPLPGGPGAGDPRIWPGRSTPESDVGAGGEEEAGSPPFSPPAGGGVPEGTGAGGLAAGGTGGGPDRLEPEMVRMVVESVERIFRSFPRGDAGEVTSLLKLNKKLARSVGHIFEMDDNDSQKEEEIRKYSIIYGRFDSKRREGKQLSLHELTINEAAAQFCMRDNTLLLRRVELFSLSRQVARESTYLSSLKGSRLHPEELGGPPLKKLKQEVGEQSHPEIQQPPPGPESYVPPYRPSLEEDSASLSGESLDGHLQAVGSCPRLTPPPADLPLALPAHGLWSRHILQQTLMDEGLRLARLVSHDRVGRLSPCVPAKPPLAEFEEGLLDRCPAPGPHPALVEGRRSSVKVEAEASRQ
Regarding B1, the binding entry in experiment [2] is recorded as “binds”.
